Assay results: patent US10143727B2, “Method using an Y1 receptor activator for treating an anticancer agent-induced nephrotoxic injury” (KYUNGPOOK NATIONAL UNIVERSITY INDUSTRY-ACADEMIC COOPERATION …, priority 2016, dated 2018)

Test system: Neuropeptide Y (NPY) and Y receptors in the kidney
Assay: Quantitative real-time PCR of NPY and Y receptors in the kidney
Type: in vivo, C57BL/6 mice

## N.N.[Cl][Pt][Cl] [cisplatin, Cisplatin]
After cisplatin 15 mg per kg treatment
  Expression level of Y1 receptor in the kidney: significantly decreased
Cisplatin 15 mg per kg vs PBS-treated controls
  mRNA levels of Neuropeptide Y (NPY) in renal cells: significantly decreased
